Test results from patent US10259815B2, “Gabaergic ligands and their uses” (UWM Research Foundation, Inc., priority 2015, dated 2019).
For some assays here: The name of at least one read-out is uncertain. For some assays here: At least one compound was matched to its structure with a doubt left.

Legend:
[1] = Single-dose pharmacokinetics and brain concentrations, IV and IP, rats; assay type: in vivo, Sprague-Dawley rats; settings: 10 mg/kg IP dose in rat
Method: The single-dose pharmacokinetics were determined in femoral artery/vein cannulated Sprague-Dawley rats. The rats received a 1 mg/kg intravenous and 10 mg/kg oral gavage dose of compound. Blood samples were collected at 0.08 (IV only), 0.25, 0.5, 1, 2, 4, 8, 12, and 24 hours after initiation of compound administration. Plasma was obtained via centrifugation. Plasma samples were then analyzed by LC-MS, and pharmacokinetic parameters calculated using Watson (version 7.4; Thermo Fisher Scientific). Calculated parameters include clearance (Cl), volume of distribution (Vdss), area-under-the-curve (AUC), half-life (T½), maximum plasma concentration (Cmax), time of maximum concentration (Tmax), and bioavailability (% F).
Male Sprague-Dawley rats were given either a 1 mg/kg […] dose or 10 mg/kg i.p. dose. Plasma concentrations were taken at 0.08, 0.25, 0.5, 1.0, 2, 4, 8, 12, and 24 hours (three rats per time point for each dose).

Male Sprague-Dawley rats = test: Vogel conflict procedure; assay type: in vivo; settings: i.p. 30 minutes prior; KRM-II-81 significant at 10 mg/kg; chlordiazepoxide 20 mg/kg
Method: FIG. 10 is a graph of the concentration of KRM-II-81 versus percent of control for KRM-II-81 analyzed in the Vogel conflict procedure. After a baseline was established using a vehicle (1% 2-hydroxyethyl cellulose), male Sprague-Dawley rats (n=6-8) were dosed i.p. with either KRM-II-81 (3, 10, 30, or 60 mg/kg) or chlordiazepoxide (20 mg/kg) 30 minutes prior to testing. Results were analyzed using ANOVA (Dunnett's test: *P<0.05; Student t-test: **P<0.05).
Subjects are withheld from water prior to testing. Once given water during testing, they will either be unpunished, where they are free to drink without consequence, or punished, where a small electrical shock is applied after every 20th lick. In vehicle punished, is it is expected that the rats hesitate from drinking due to the anxiousness of being shocked. When given an anxiolytic, the […] will continue to drink water despite the electrical shock.
Experiments were conducted as described in the protocol of Alt et al. (Neuropharmacology 2007, 52, 1482-1487). […]
Apparatus. […] All events were controlled and licking data was recorded by a Compaq computer running MED-PC Version IV (Med Associates Inc., Georgia, Vt., USA).
Sipper tube training. […] The six minutes was broken into two components, the first three minutes was recorded as the unpunished component and the second three minutes were recorded as the punished component. […]

Row | SMILES | time of Cmax [1] | punished licking compared to control (Male Sprague-Dawley rats)
1 | C#Cc1ccc2c(c1)C(c1ccccn1)=NCc1c(-c3cnco3)ncn1-2 [KRM-II-81, 5-(8-Ethynyl-6-(pyridin-2-yl)-4H-benzo[f]imidazo[1,5-a][1,4]diazepin-3-yl)oxazole] | 2.0 h | –
2 | CNC1=Nc2ccc(Cl)cc2C(c2ccccc2)=[N+]([O-])C1 [chlordiazepoxide, reference compound] | – | increased punished licking
